# PubChem BioAssay AID1259308 | NCATS, 2017
# Screen: 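Candidate targets for better recombinant protein yield in mammalian cells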 (primary screen)
# Cells: human HEK293 embryonic kidney cells stably expressing firefly luciferase (HEK-CMV-Luc2-Hygro)
# Reagent: single siRNA against human genes, 0.8 pmol siRNA per well
# Duration: 72 h
# Read-out: 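Reporter luminescence and viable-cell signal on separate replicate plates, given as percent of non-targeting control and median/MAD z-scores, plus per-cell luciferase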
# Direction: total luciferase, z-score and total luciferase, % of control: higher = more reporter protein produced; luciferase per cell, z-score: higher = more reporter output per viable cell; viable cells, % of control: higher = more viable cells
# Rule for the call: 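An siRNA counts as active if its total luciferase robust z-score exceeds 3; genes with two or more such siRNAs out of three were retested with fresh siRNAs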
# Meaning of the calls: active = raised luciferase; inactive = no rise
# The whole screen tested about 59,000 reagents; this is a random part of them. About 1,510 of all reagents (2.6%) were called active. 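Calls use total luciferase alone and ignore viability, so some active siRNAs may act by altering cell number.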 The numbers tell different reagents against one gene apart. No sequences are given here.
gene knocked down,siRNA no.,"total luciferase, z-score","total luciferase, % of control","luciferase per cell, z-score","viable cells, % of control",outcome
COLCA1,1,-0.798,66,0.406,66.3,inactive
COLCA1,2,2.31,128,2.03,83.7,inactive
COLCA1,3,2.24,126,0.995,109,inactive
RASIP1,1,1.23,106,1.24,85.8,inactive
RASIP1,2,0.683,95.5,2.39,56.8,inactive
RASIP1,3,-0.975,62.5,-1.34,99.4,inactive
PSKH2,1,1.33,108,1.24,87.4,inactive
PSKH2,2,-0.881,64.4,-1.3,101,inactive
PSKH2,3,-0.558,70.8,-0.325,86.2,inactive
ATAD2B,1,-0.972,62.6,-1.51,104,inactive
ATAD2B,2,-0.159,78.7,-0.0789,89.8,inactive
ATAD2B,3,0.976,101,1.02,86.6,inactive

3 entries from above in another layout.
COLCA1 #2: total luciferase, z-score = 2.31; total luciferase, % of control = 128; luciferase per cell, z-score = 2.03; viable cells, % of control = 83.7; outcome = inactive
COLCA1 #3: total luciferase, z-score = 2.24; total luciferase, % of control = 126; luciferase per cell, z-score = 0.995; viable cells, % of control = 109; outcome = inactive
RASIP1 #1: total luciferase, z-score = 1.23; total luciferase, % of control = 106; luciferase per cell, z-score = 1.24; viable cells, % of control = 85.8; outcome = inactive

The results go on.
gene knocked down,siRNA no.,"total luciferase, z-score","total luciferase, % of control","luciferase per cell, z-score","viable cells, % of control",outcome
COMMD4P1,1,1.56,113,0.92,99,inactive
COMMD4P1,2,-1.16,58.8,-1.38,94.5,inactive
COMMD4P1,3,0.186,85.6,0.105,93,inactive
PHF6,1,-1.13,59.5,-1.69,104,inactive
PHF6,2,1.17,105,1.16,86.6,inactive
PHF6,3,-0.524,71.5,-0.571,92.8,inactive
FADS6,1,-0.65,69,-0.942,98.8,inactive
FADS6,2,-0.652,68.9,0.0269,76.5,inactive
FADS6,3,-0.745,67.1,1.34,52.7,inactive
ADAD1,1,-0.251,76.9,2.2,48.2,inactive
ADAD1,2,0.436,90.6,0.12,98,inactive
ADAD1,3,-0.335,75.2,-0.728,102,inactive
